The record followed here is the supplement of paper PMC10849652.

Amino acid sequences for entries named in this document (tags omitted). A change or cut given only in a name is not applied to a line headed by its entry.
UniProt Q5T440: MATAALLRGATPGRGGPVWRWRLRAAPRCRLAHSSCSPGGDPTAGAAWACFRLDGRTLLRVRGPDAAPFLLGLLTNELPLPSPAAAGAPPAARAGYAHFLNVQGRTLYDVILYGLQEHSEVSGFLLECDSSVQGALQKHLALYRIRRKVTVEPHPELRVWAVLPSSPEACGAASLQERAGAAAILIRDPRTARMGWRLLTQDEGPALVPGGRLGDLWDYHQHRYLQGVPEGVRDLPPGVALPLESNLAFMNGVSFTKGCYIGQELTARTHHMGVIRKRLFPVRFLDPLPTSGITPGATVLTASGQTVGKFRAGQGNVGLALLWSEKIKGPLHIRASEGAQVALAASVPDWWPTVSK
UniProt P00492: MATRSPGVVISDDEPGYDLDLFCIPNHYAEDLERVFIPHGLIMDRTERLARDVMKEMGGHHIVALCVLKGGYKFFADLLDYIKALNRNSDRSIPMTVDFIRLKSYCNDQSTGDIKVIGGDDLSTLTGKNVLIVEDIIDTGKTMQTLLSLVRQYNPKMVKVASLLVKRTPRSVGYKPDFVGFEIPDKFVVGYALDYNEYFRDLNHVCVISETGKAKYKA
UniProt Q92598: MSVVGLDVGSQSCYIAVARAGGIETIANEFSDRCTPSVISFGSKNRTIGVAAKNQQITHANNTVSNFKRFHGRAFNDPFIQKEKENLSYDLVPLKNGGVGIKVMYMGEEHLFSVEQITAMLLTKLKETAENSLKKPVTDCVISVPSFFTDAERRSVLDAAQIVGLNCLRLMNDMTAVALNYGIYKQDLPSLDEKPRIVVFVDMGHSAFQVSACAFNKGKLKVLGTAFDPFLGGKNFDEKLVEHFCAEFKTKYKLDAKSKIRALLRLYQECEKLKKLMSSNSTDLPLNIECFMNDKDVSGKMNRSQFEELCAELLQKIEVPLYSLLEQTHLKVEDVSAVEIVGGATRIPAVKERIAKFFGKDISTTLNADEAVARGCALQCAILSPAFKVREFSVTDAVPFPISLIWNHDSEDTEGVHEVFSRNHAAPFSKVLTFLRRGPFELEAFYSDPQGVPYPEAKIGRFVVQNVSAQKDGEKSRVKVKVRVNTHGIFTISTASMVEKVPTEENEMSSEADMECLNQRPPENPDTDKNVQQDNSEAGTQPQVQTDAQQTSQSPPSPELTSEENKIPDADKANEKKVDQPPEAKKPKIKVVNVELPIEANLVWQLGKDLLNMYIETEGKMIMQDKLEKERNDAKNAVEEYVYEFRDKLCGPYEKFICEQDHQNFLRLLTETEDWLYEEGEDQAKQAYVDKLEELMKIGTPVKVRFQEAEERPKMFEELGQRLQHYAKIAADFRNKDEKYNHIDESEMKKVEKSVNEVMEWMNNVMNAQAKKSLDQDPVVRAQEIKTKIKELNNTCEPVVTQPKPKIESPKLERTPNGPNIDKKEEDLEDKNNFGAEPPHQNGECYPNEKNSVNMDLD
UniProt Q8TCT9: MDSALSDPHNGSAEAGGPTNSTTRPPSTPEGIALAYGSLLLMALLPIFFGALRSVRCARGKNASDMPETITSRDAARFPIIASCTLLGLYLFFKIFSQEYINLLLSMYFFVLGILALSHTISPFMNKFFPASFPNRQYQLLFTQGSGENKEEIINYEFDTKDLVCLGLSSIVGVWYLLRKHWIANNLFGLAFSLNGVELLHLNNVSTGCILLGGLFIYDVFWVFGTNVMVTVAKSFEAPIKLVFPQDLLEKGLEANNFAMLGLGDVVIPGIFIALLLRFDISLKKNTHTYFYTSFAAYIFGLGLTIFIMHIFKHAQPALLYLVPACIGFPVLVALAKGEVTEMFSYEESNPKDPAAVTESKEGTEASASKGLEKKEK
UniProt P04035: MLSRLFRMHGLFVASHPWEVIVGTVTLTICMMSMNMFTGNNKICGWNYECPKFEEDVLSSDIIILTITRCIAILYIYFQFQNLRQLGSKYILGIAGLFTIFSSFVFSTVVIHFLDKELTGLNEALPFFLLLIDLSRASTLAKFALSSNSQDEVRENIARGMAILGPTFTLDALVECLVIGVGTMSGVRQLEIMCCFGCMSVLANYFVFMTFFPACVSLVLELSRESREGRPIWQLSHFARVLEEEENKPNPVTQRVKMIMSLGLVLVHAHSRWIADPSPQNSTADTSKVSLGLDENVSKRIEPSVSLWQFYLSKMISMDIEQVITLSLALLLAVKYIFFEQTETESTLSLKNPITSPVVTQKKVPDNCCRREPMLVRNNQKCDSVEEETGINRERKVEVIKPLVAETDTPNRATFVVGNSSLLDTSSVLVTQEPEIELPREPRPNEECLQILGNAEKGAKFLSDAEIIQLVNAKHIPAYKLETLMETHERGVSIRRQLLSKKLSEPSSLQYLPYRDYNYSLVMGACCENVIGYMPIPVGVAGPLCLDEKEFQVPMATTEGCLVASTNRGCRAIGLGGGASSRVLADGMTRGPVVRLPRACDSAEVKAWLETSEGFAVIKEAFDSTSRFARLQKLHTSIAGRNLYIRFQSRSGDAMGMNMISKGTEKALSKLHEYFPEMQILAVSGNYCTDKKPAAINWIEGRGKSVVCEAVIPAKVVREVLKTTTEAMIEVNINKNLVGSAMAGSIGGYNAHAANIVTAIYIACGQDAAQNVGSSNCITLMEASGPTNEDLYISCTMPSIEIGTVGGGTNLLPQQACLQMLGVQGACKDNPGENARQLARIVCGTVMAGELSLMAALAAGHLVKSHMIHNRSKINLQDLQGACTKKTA
UniProt P31942: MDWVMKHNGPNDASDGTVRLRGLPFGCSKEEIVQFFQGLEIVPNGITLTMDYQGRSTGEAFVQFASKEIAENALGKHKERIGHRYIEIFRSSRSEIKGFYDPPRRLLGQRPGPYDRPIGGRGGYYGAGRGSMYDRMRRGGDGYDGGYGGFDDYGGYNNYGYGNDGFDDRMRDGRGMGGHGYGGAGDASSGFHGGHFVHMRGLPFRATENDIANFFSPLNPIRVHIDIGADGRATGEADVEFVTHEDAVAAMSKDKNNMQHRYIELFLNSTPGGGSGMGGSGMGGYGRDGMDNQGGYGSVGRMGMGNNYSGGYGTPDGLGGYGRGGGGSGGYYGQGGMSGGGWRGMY
UniProt Q92506: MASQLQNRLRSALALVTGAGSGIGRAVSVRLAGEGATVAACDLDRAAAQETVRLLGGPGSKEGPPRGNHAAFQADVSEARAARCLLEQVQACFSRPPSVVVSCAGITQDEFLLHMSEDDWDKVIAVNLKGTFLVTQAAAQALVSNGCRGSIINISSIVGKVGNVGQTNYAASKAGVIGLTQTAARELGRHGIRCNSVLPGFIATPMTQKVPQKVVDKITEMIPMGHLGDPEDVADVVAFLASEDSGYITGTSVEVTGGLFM
UniProt O00291: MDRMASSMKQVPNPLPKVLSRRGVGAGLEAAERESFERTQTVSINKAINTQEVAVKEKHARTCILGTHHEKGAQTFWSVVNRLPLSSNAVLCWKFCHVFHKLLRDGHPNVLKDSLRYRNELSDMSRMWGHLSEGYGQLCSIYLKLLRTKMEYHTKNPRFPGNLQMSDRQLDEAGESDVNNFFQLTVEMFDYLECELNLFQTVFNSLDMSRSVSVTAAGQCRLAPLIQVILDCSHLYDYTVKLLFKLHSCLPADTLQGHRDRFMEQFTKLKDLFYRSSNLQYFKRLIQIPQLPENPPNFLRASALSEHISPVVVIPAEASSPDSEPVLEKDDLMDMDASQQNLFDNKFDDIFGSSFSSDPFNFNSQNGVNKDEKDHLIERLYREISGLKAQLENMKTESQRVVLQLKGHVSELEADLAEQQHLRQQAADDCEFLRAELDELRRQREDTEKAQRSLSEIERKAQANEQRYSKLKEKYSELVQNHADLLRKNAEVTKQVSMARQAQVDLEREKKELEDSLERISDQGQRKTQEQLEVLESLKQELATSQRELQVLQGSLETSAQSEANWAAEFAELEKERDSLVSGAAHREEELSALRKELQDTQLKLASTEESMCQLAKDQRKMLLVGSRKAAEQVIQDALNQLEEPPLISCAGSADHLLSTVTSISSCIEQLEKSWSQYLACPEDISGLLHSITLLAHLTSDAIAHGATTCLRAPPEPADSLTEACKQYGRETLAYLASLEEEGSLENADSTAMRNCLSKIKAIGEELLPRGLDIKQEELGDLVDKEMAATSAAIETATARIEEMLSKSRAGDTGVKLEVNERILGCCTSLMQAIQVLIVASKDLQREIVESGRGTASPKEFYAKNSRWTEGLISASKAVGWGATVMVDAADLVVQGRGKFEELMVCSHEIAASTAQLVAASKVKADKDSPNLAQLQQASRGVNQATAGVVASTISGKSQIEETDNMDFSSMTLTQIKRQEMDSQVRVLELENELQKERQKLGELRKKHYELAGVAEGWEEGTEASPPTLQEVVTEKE
UniProt Q7LGA3: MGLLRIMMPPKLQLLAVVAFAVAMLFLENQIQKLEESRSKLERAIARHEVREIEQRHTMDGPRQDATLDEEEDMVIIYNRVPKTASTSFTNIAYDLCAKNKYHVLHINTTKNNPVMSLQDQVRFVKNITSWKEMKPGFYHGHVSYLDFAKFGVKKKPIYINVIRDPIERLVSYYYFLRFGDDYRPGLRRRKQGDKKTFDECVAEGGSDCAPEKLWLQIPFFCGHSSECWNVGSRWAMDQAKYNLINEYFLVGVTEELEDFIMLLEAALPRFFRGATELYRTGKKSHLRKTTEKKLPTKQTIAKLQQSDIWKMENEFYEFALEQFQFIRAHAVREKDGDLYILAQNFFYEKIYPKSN
UniProt P31943: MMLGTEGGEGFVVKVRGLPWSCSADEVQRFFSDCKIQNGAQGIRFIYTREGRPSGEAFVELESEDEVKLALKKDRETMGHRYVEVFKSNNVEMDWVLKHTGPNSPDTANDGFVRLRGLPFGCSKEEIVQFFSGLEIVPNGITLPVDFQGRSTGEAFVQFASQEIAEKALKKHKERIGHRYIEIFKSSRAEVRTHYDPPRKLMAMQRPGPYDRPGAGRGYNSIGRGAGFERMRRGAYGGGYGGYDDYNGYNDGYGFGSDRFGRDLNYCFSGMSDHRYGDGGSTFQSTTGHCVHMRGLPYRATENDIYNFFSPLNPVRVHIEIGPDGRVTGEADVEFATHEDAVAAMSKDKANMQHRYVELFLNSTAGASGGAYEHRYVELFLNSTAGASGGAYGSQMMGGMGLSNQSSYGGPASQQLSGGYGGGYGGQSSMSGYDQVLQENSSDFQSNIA
UniProt Q6YN16: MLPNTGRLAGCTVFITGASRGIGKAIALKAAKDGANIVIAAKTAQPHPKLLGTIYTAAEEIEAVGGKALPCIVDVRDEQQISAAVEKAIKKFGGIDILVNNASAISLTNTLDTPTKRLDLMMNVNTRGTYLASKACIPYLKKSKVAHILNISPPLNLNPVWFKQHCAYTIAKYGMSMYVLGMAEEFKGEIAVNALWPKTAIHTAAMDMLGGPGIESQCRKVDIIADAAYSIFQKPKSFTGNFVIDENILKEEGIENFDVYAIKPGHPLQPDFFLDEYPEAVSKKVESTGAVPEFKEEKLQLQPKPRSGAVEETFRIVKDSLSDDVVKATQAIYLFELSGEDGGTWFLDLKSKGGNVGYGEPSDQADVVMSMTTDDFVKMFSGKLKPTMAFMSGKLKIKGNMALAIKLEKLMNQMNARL
UniProt Q9BUJ2: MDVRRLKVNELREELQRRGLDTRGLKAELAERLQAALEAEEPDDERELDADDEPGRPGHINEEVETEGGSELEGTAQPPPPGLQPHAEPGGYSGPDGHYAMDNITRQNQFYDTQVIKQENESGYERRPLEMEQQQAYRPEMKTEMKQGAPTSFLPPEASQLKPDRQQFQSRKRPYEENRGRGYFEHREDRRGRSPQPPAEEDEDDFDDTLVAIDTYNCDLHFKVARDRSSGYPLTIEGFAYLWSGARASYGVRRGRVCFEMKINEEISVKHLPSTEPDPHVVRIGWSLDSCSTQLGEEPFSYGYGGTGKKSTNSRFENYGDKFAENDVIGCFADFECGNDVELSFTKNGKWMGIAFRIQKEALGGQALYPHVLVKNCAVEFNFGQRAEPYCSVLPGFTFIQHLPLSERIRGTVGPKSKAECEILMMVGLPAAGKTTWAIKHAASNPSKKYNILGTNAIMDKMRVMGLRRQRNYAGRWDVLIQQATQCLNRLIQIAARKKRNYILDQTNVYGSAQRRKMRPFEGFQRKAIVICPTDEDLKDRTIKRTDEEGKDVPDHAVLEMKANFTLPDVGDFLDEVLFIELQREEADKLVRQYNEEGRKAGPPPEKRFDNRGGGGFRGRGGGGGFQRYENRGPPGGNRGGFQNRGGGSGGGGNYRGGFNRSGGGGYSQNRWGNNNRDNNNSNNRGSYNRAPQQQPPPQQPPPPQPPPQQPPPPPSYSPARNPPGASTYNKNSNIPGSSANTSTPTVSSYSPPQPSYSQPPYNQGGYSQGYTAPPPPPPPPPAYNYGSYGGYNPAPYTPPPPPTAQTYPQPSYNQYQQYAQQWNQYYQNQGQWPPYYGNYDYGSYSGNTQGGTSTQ

The list shows a part of the results.

Compound in this assay: Cc1sc2c(c1C)C(c1ccc(Cl)cc1)=N[C@@H](CC(=O)OC(C)(C)C)c1nnc(C)n1-2
The assay is described as follows: log2 fold change, soluble protein after heating vs DMSO (PISA); higher = thermal stabilisation; K562 cells, 10 uM, 30 min; active = over 0.2 and 3.5 SD of the protein, either way, in both replicates (recomputed). The procedure, abridged:
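Aliquots of K562 cells (2×10^6 cells/mL) treated with 10 μM compound for 30 min were heated for 3 min over 48°C-58°C. After pooling and extraction in PBS with 0.5% NP-40 at 4°C, soluble protein from a 21,000xg, 90 min spin was quantified by TMTpro 16plex LC-MS/MS with channel sums equalised. Thermal stability is expressed against control samples, from duplicates, as a log2 fold change.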
Consider IBA57 (UniProt Q5T440), for which the log2 fold change was inactive: 0.003.

Consider HSPG2 (UniProt P98160), for which the log2 fold change was inactive: -0.014. Regarding HPRT1 (UniProt P00492), the log2 fold change was inactive: -0.008. For HP1BP3 (UniProt Q5SSJ5), the log2 fold change is inactive: 0.142. With HSPH1 (UniProt Q92598) the figure was inactive: -0.009; with HM13 isoform 2 (UniProt Q8TCT9), inactive: -0.006; with IARS (UniProt P41252), inactive: 0.216. The figure for HMGCR isoform 3 (UniProt P04035) is inactive: 0.111; for HOOK3 (UniProt Q86VS8) it is inactive: 0. The figure for HSD17B11 (UniProt Q8NBQ5) is inactive: -0.038; for HNRNPH3 (UniProt P31942) it is inactive: -0.08; for HMGN5 (UniProt Q5JSK9) it is inactive: -0.003.

Take HTRA2 (UniProt O43464): the log2 fold change was inactive: -0.024.

As to HGH1 (UniProt Q9BTY7), the log2 fold change was inactive: 0.026. The figure for HSD17B8 (UniProt Q92506) is inactive: 0.027; for HSPBP1 isoform 3 (UniProt Q9NZL4) it is inactive: 0.023; for HNRNPDL (UniProt O14979) it is inactive: 0.157. With HIP1 (UniProt O00291), the log2 fold change was inactive: 0.019. With HS2ST1 (UniProt Q7LGA3) the figure was inactive: 0.036; with HNRNPH1 (UniProt P31943), inactive: -0.015; with HMBS (UniProt F5H226), inactive: 0.039. The figure for HSDL2 (UniProt Q6YN16) is inactive: -0.041; for HNRNPUL1 (UniProt Q9BUJ2) it is inactive: 0.07.
